Experimental data taken from paper PMC3793875.
These are yes or no findings as the source states them, for the method shown. Binding seen in cells or lysates may run through a third protein. Some entries that bind do so weakly or less than the wild type.

Amino acid sequences for entries named in this document (tags omitted). A change or cut given only in a name is not applied to a line headed by its entry. Chains listed by the source or under a name are the forms on record and can include a tag or linker.
UniProt P21555: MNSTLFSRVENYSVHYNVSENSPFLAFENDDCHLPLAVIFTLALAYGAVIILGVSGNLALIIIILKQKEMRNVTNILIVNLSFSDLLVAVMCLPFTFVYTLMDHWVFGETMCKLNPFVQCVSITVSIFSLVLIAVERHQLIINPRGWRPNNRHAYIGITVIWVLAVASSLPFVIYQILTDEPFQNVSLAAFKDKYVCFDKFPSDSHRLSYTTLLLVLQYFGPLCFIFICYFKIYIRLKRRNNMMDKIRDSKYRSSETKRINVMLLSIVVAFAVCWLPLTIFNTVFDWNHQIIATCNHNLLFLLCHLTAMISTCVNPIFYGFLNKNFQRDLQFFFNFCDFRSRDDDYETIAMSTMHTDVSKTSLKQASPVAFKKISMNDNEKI
Y1 6A receptor-Gc (P21555, form named): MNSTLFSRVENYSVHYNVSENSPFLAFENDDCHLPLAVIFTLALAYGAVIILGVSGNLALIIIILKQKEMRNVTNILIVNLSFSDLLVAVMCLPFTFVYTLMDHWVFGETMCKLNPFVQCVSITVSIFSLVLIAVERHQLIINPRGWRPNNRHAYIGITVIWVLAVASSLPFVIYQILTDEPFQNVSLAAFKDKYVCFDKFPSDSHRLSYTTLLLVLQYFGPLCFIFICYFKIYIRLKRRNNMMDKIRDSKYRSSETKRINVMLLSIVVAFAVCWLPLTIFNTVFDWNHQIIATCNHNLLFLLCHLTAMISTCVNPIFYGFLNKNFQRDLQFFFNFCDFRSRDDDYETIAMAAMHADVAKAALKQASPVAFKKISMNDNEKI
UniProt P49407: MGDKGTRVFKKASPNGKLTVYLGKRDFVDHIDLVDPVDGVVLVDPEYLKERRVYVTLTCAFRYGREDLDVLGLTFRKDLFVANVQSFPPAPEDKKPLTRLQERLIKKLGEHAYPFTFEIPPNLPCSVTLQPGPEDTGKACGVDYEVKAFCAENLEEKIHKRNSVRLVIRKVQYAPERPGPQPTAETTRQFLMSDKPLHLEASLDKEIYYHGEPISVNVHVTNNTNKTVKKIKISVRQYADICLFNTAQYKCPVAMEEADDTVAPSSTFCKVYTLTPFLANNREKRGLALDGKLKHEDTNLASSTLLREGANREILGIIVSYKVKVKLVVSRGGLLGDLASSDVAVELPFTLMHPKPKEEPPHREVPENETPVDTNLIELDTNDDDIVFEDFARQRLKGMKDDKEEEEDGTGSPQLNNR

What was measured:
[1] = biological target: Y1 receptor, YFP BiFC fusion (rat) (UniProt P21555); assay: split reporter; YFP BiFC system, basal and NPY-stimulated, quantitative data in Supplementary Fig. 1
[2] = biological target: Y1 receptor-Gc (rat Y1 receptor fused at the C terminus to sfGFP fragment 155-238) (rat) (UniProt P21555); assay: split reporter; sfGFP BiFC (receptor-Gc with β-arrestin-Gn) in live stable HEK293 cells, confocal microscopy at 37 °C, control or 100 nM NPY for 60 min
Y1 6A receptor-Gc (rat) = Y1 6A receptor-Gc (rat) (UniProt P21555); assay: as above

binding [1] | binding [2] | binding (Y1 6A receptor-Gc (rat)) | Substance
binds | – | – | β-arrestin1, YFP BiFC fusion (from UniProt P49407 1-418)
– | binds | no binding | β-arrestin1-Gn (human β-arrestin1 fused at the C terminus to sfGFP fragment 2-172) (from UniProt P49407 1-418)
